The values that follow come from patent US20250041377A1 (ENLITISA (SHANGHAI) PHARMACEUTICAL CO., LTD., priority 2018, published 2025).

Where no end group is shown, it is not given here. [ ]: non-standard residue; d: D form. Hyp = O=C(O)[C@@H]1C[C@@H](O)CN1

This data set is described as follows: peptide made by a vendor (Fmoc solid-phase peptide synthesis; Fmoc-Lys-Boc-Wang resin (0.3 mmol/g; GL Biochem)). The conditions noted are these: whole synthesis, UV 220 nm.

Consider AKPSY[Hyp][Hyp]TYK, for which the “purity (crude or final not stated)” value is 97.89%.
